Data as given in patent publication US20260258035A1, “FIVE-MEMBERED AND SIX-MEMBERED NITROGEN-CONTAINING COMPOUND, AND INTERMEDIATE, PREPARATION METHOD AND USE THEREOF” (HANGZHOU SYNRX THERAPEUTICS BIOMEDICAL TECHNOLOGY CO., LTD., priority 2022, published 2026).

Sequences of proteins named here, by UniProt entry; tags and fusion partners are left off.
UniProt Q86W56, whole entry: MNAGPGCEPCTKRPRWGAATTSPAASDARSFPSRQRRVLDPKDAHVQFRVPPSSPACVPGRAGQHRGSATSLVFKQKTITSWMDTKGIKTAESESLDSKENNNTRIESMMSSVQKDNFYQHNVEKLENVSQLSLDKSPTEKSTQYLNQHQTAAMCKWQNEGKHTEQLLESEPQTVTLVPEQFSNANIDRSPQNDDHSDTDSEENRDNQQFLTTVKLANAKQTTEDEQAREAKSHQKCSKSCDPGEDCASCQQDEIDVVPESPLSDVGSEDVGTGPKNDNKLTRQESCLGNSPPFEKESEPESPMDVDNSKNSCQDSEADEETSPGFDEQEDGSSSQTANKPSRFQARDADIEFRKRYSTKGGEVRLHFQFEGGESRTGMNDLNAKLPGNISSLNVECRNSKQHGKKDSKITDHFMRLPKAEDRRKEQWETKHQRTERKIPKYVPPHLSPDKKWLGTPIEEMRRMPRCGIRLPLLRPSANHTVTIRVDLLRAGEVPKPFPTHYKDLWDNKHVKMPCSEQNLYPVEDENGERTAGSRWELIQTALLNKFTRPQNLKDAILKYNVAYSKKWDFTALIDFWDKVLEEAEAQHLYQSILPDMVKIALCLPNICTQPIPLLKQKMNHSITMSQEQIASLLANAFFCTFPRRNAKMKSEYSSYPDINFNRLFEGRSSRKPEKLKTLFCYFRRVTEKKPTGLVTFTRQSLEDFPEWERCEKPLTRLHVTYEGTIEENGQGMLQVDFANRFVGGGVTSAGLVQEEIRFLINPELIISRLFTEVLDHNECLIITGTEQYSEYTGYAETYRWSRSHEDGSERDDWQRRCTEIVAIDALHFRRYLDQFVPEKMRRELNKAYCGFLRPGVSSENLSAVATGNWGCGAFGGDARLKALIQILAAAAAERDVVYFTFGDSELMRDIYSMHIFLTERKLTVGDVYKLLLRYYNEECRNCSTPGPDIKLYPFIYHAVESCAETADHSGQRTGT

What was measured:
PARG = PARG (Homo sapiens, UniProt Q86W56); assay: Biochemical assay (PARG, TFMU-ADPr substrate); details: read-out: IC50 (nM) in biochemical assay
[1] = tested on: Human breast squamous carcinoma cells HCC1806; assay: Cell function assay (In-Cell Western, PAR/pADPr after MMS); type: cell-based; details: read-out: IC50 (nM) in cell function assay
Method: 2. Cell Function Assay (In-Cell Western)
• 1) Human breast squamous carcinoma cells HCC1806 (ATCC) were seeded to the 384-well plate (Corning, #3764) at 20,000 cells/well, incubated for 24 h in a CO2 (5%) incubator at 37° C. to allow for complete adherence of the cells; • 2) 120 nL compounds or DMSO were added to the 384-well plate by Echo 550 (LABCYTE, #550) (final concentrations of compounds: 30000 nM, 10000 nM, 3000 nM, 1000 nM, 300 nM, 100 nM, 30 nM, 10 nM, 3 nM, 1 nM, 0 nM), and then the cells were incubated for 1 h in a CO2 (5%) incubator at 37° C.; • 3) 40 nL MMS (methyl mesylate, Sigma, #129925)(final concentration: 0.5 mM) was added to the plate by Echo 550, and the cells were treated for 1 h in a CO2 (5%) incubator at 37° C. […]

HCC1806 = assay: Cell viability assay (CellTiter-Glo); type: cell-based, Human; details: read-out: IC50 (nM) in cell viability assay, HCC1806, 7 days
Method: • 1) HCC1806 (Nanjing Cobioer, ATCC cell bank, 200 cells/well) was plated in the 96-well plate, and incubated for 24 h in a CO2 (5%) incubator at 37° C. to allow for complete adherence of the cells; • 2) media (100 L/well) containing the compounds (final concentrations of compounds: 30000 nM, 10000 nM, 3000 nM, 1000 nM, 300 nM, 100 nM, 30 nM, 10 nM, 3 nM, 1 nM, 0 nM) were added to the cells, and then, incubated for 7 days in the C02 (50%) incubator at 37° C.; • 3) the culture plate containing the cells was held at room temperature for 30 min to equilibrate the plate and its contents to room temperature; • 4) CellTiter-Glo (Promega: V9101) reagent (100 μL/well) was added to each well of cells, and the contents were mixed on an orbital shaker for 2 minutes; • 5) the plate was incubated at room temperature for 10 min to stabilize the signal, and detected by the microplate reader (Thermo: VarioskanLUX); • 6) data were analyzed using GraphPad software to determine the IC50.

[2] = 4 nM PARG, 66.2 uM TFMU-ADPr, 3 min at room temperature

Row | SMILES | IC50 (PARG; [2]) | IC50 (PARG; PARG, TFMU-ADPr substrate) | IC50 ([1]; HCC1806, In-Cell Western, MMS treatment) | IC50 ([1]; HCC1806, compound 1 h then 0.5 mM MMS 1 h, PAR/pADPr antibody, In-Cell Western) | IC50 (HCC1806)
1 | CC(C)C(=O)N1CCN(c2cc(S(=O)(=O)NC3(C)CCC3)cn3c(-c4nnc(C(F)F)s4)ncc23)CC1 | < 100 nM | 3.92 nM | 324 nM | 100 to 500 nM | 5000 to 30000 nM and 9890 nM
2 | COc1ccc(-c2cc(S(=O)(=O)NC3(C#N)CC3)cn3c(-c4nnc(C(F)F)s4)ncc23)cn1 | < 100 nM | 38.4 nM |  |  | 
3 | CC1(O)CCN(c2cc(S(=O)(=O)NC3(C)COC3)cn3c(-c4nnc(C(F)F)s4)ncc23)CC1 | < 100 nM | 32.9 nM |  |  | 

Values joined by “and” are separate entries in the source; they are usually repeats but may differ in a detail not shown here. Equal entries are not always repeated. Where two headings read alike, the source gives them in different places. Structures were worked out from names or drawings and are uncertain.
